Test results: PubChem BioAssay AID624291 (National Center for Advancing Translational Sciences (NCATS), 2012)
The whole screen tested about 350,000 compounds, of which about 220 (0.063%) were called active. This list was built around the results that the source calls inconclusive (neither active nor inactive); the mix of calls is not that of the screen. The call rests on the fitted dose curve; in most records, active means well fitted activation curve with a large enough effect; inconclusive means small, poorly fitted or top-dose-only effect; inactive means no such curve, though single readings can be large or run the other way. Where the call is inconclusive, the potency comes from a doubtful curve fit.

Assay: qHTS for Activators of Integrin-Mediated Alleviation for Muscular Dystrophy; further: nearly all actives have a fitted effect of over 60% in size;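 on activation: 100% = response of the positive control SU9516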
Details: alpha7betagal myoblasts, beta-gal FDG fluorescence, 48 h; activation: at 38.3 µM (top of the series)
Method in brief: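 alpha7betagal+/- myoblasts (passage 13, 250/well) treated 48 h at 37C with compounds at 1:260 dilution of DMSO stock. Lysed, then beta-galactosidase activity read as FDG fluorescence (ex 480/em 540) after 30 min, with pre-read for autofluorescence.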
Potency means the concentration at half of the fitted maximal effect.

| Structure (SMILES) | Potency | activation |
| --- | --- | --- |
| CCN1C(=O)/C(=C2/Sc3ccccc3N2CCCS(=O)(=O)O)SC1=S | inconclusive: 28.2 µM [activator, single point] | – |
| Cc1nc2sc(C(c3ccco3)N3CCN(c4ccccc4F)CC3)c(O)n2n1 (stereo not drawn) | – | inactive: -10.1% |
| Cc1ccccc1CN1CCN(C(=O)c2ccco2)CC1 | inconclusive: 11.2 µM [activator, single point] | – |
| Cc1ccc(CNC(=O)CSCc2cccc(F)c2)cc1 | inconclusive: 17.8 µM [activator, single point] | – |
| Cc1ccc2c(c1)C1CN(C)CCC1N2C(=S)NC(=O)c1ccc(Br)cc1 (stereo not drawn) | – | inactive: -64.3% |
| Cc1ccc(CNC(=O)C2CCCN(c3cnccn3)C2)cc1 (stereo not drawn) | inconclusive: 3.98 µM [activator, single point] | – |
| CC(C)Cn1c(O)c(/C=C2\C=NN=C2c2ccccc2)sc1=S | – | inactive: -1.44% |
| CC(C)NC(=O)/C(=C\c1cccc([N+](=O)[O-])c1)NC(=O)c1ccccc1 | – | inactive: -2.68% |
| CC(C)c1cc(CNC(=O)c2ccc(OC3CCN(Cc4ccccn4)CC3)cc2)on1 | inconclusive: 5.01 µM [activator, single point] | – |
| CSCCC(NC(=O)c1ccccc1Br)C(=O)NCCCn1nc(C)cc1C (stereo not drawn) | inconclusive: 5.01 µM [activator, single point] | – |
| C=CCNCCCCOc1ccccc1-c1ccccc1 | inconclusive: 7.08 µM [activator, partial curve, poor fit] | – |
| CCn1ccc2cc(OC)ccc2c1=S | inconclusive: 7.08 µM [activator, partial curve, poor fit] | – |
| CC1(C)Cc2c(cnn2-c2ccc(F)cc2)C(NC(=O)CCC(F)(F)F)C1 (stereo not drawn) | – | inactive: 20.3% |
| Cc1cc(Nc2ccccc2)n(-c2ccccc2)n1 | – | inactive: -11.2% |
| Cc1cc(NC(=O)c2cccs2)ncc1NC(=O)c1cccc(F)c1 | inconclusive: 3.16 µM [activator, single point] | – |
| CCOc1ccc(-c2noc(CCC(=O)NC3CCCCC3)n2)cc1OC | inconclusive: 5.01 µM [activator, single point] | – |
| CNS(=O)(=O)c1ccc(NC(=O)c2cnn3c(C(F)F)cc(-c4ccccc4)nc23)cc1 | inconclusive: 28.2 µM [activator, single point] | – |
| C=CCNc1ncnc2c1cnn2-c1cccc(C)c1 | – | inactive: 1.59% |
| CCC1Cc2c(nc(N)c3c(N)nc(N4CCOCC4)c(C#N)c23)O1 (stereo not drawn) | inconclusive: 1.41 µM [activator, single point] | – |
| O=c1nc2n(c3cccc(Cl)c13)CCCCC2 | inconclusive: 14.1 µM [activator, single point] | – |
| Clc1ccc(/C=C/c2ncc3ccccn23)cc1 | – | inactive: 0.413% |
| CN1C2CCC1CC(NS(=O)(=O)c1cccc(C(F)(F)F)c1)C2 (stereo not drawn) | inconclusive: 3.98 µM [activator, single point] | – |
| O=C(COC(=O)c1ccccn1)c1ccc([N+](=O)[O-])cc1 | inconclusive: 3.98 µM [activator, single point] | – |
| CCOc1cc2[nH]c(=S)n(CCc3ccc(OC)c(OC)c3)c(=O)c2cc1OCC | – | inactive: 20.4% |
| CS(=O)(=O)c1nc(S(=O)(=O)c2ccc(Cl)cc2)c(N2CCOCC2)s1 | – | inconclusive: -54.8% [activator] |

Some values from the list.
CS(=O)(=O)c1nc(S(=O)(=O)c2ccc(Cl)cc2)c(N2CCOCC2)s1 | activation: inconclusive: -54.8% [activator]
Cc1ccccc1CN1CCN(C(=O)c2ccco2)CC1 | Potency: inconclusive: 11.2 µM [activator, single point]

Carrying on.

| Structure (SMILES) | Potency | activation |
| --- | --- | --- |
| CC(Nc1ccc(F)cc1F)C(=O)NC(=O)NC1CCCCC1 (stereo not drawn) | – | inactive: -24.4% |
| Cc1onc(-c2c(F)cccc2Cl)c1C(=O)OCC(=O)NC(N)=O | inconclusive: 3.98 µM [activator, single point] | – |
| COc1ccc(NC(=O)COC(=O)CCCC2=NS(=O)(=O)c3ccccc3N2)cc1Cl | – | inactive: 18.9% |
| CC(=O)N=Cc1c(C)c(C#N)c(=O)n(C)c1O | inconclusive: 3.16 µM [activator, single point] | – |
| COc1ccccc1-c1cc2nc(C)c(CCC(=O)NCc3ccc(F)cc3)c(C)n2n1 | inconclusive: 2.82 µM [activator, single point] | – |
| COC(=O)C1C(=O)C2=C(CC1C)NC(C)=C(C(=O)OC(C)C)C2c1ccc(OC)c(O)c1 (stereo not drawn) | inconclusive: 10 µM [activator, single point] | – |
| CN(C)C(=S)SCCn1c(N)nc(N(C)C)nc1=O | inconclusive: 25.1 µM [activator, partial curve, poor fit] | – |
| COc1ccc(C2C=C(C)Nc3nc4ccccc4n32)cc1 (stereo not drawn) | inconclusive: 5.01 µM [activator, single point] | – |
| Cc1ccsc1C(=O)Nc1nccs1 | inconclusive: 28.2 µM [activator, single point] | – |
| CCN(CC)S(=O)(=O)c1cc(NC(=O)CCCOc2ccc(C(C)=O)cc2)ccc1C | – | inactive: -0.85% |
| O=C(COC(=O)/C=C/c1ccccc1)NCc1cccs1 | inconclusive: 2.51 µM [activator, partial curve, poor fit] | – |
| C1CCC(OCCN2CCN(CCOC3CCCCC3)CC2)CC1 | – | inactive: -27.2% |
| O=C1CCCN1S(=O)(=O)c1ccccc1 | inconclusive: 1.12 µM [activator, partial curve, poor fit] | – |
| Cc1ccc(NC(=O)CN(C)S(=O)(=O)c2cccc3cccnc23)cc1F | inconclusive: 5.01 µM [activator, single point] | – |
| CC(C)OC(=O)c1ccc(NC(=O)c2cccc(-n3cnnn3)c2)cc1 | inconclusive: 3.98 µM [activator, single point] | – |
| COc1cc2c(cc1OC)C(COc1cc(C)cc(C)c1)N(C(C)=O)CC2 (stereo not drawn) | inconclusive: 28.2 µM [activator, single point] | – |
| Cc1ccccc1C(=O)Nc1ccccc1NC(=O)c1ccccc1Br | inconclusive: 5.01 µM [activator, single point] | – |
| CCOC(=O)C1=C(C)N(C)C(=S)NC1c1c(OCC)ccc2ccccc12 (stereo not drawn) | inconclusive: 11.2 µM [activator, partial curve, poor fit] | – |
| O=C1NC(=O)/C(=C/c2ccc(-c3cc(C(=O)O)ccc3Cl)o2)S1 | inconclusive: 5.01 µM [activator, single point] | – |
| C/C(=N\NC(=O)c1cc(O)ccc1O)c1cccc(NC(=O)c2ccc(Cl)cc2)c1 | inconclusive: 1.78 µM [activator, full curve, poor fit] | – |
| O=C(Nc1ccc(N2CCCC2)cc1)c1ccccc1[N+](=O)[O-] | inconclusive: 3.16 µM [activator, single point] | – |
| CN1c2ccccc2-c2nc3ccccc3n2C1c1cccs1 (stereo not drawn) | – | inactive: 9.37% |
| COc1ccc(Cn2ccnc2SCC(=O)NC2CCCC2)cc1 | – | inactive: 23.3% |
| CCOC(=O)c1c(C)oc2c1c(C=NCc1ccccn1)c(O)c1ccccc12 | – | inactive: 37.1% |
| C=CCNC(=S)NNC(=O)CSc1nc2ccccc2s1 | – | inactive: 0.963% |

| Structure (SMILES) | Potency | activation |
| --- | --- | --- |
| Cc1ccc(C(=O)NNC2=NCCC2)cc1 | – | inactive: 31.2% |
| C=CCNC(=S)NNC(=O)c1cc(O)ccc1O | inconclusive: 2.82 µM [activator, single point] | – |
| CCn1c(CNc2ccccc2Cl)nnc1SCCN1CCCCC1 | – | inactive: -10.8% |
| CCOC(=O)C1CCN(C(=O)c2cc(S(=O)(=O)N3CCCCCC3)ccc2OC)CC1 | inconclusive: 10 µM [activator, partial curve, poor fit] | – |
| ON=C1c2ccccc2-c2cc(Br)ccc21 | inconclusive: 15.8 µM [activator, partial curve, poor fit] | – |
| CC(C)(C)/C(COc1ccccc1[N+](=O)[O-])=N/O | inconclusive: 5.01 µM [activator, single point] | – |
| CC(=O)Nc1ccc(CN2CCN(CC=C(C)C)C(CCO)C2)cc1 (stereo not drawn) | – | inconclusive: 46% [activator] |
| CC(=O)N1c2ccccc2C(=O)OC1c1cccnc1 (stereo not drawn) | – | inactive: 17.5% |
| NC(=O)NC(=O)CSc1ccccc1 | inconclusive: 28.2 µM [activator, partial curve, poor fit] | – |
| CCCCCn1c(C(Cc2ccccc2)NC(C)=O)nc2ccccc21 (stereo not drawn) | – | inactive: -0.068% |
| NS(=O)(=O)c1ccc(N2N=C(c3ccccc3)CC2c2cccc(Cl)c2)cc1 (stereo not drawn) | – | inactive: -27.5% |
| Cc1cccc(C)c1NC(=O)C1=C(O)c2sccc2N(C)S1(=O)=O | inconclusive: 28.2 µM [activator, single point] | – |
| Cc1c(Br)cnn1C(C)C(=O)N1CCN(c2ccccc2F)CC1 (stereo not drawn) | inconclusive: 3.55 µM [activator, full curve, poor fit] | – |
| Cc1cc(C)n2c(C)nnc2c1 | inconclusive: 0.316 µM [activator, partial curve, poor fit] | – |
| S=C(NCCc1ccccc1)Nc1ccc(N2CCCCC2)cc1 | – | inactive: -5.54% |
| N/C(=N\OC(=O)COc1ccc2ccccc2c1)c1ccncc1 | inconclusive: 5.01 µM [activator, single point] | – |
| O=C(CSc1ncn[nH]1)N/N=C/c1ccc(Br)cc1 | inconclusive: 15.8 µM [activator, single point] | – |
| Oc1c(Br)cc(Cl)cc1C=Nc1ccc(N2CCOCC2)cc1 | – | inactive: 5.17% |
| Cc1ccc(S(=O)(=O)N2CCCCC2C(=O)O)cc1 (stereo not drawn) | inconclusive: 2.82 µM [activator, full curve, poor fit] | – |
| O=C(O)c1ccccc1Sc1ncnc2sccc12 | inconclusive: 5.01 µM [activator, single point] | – |
| O=C(Nc1cc(S(=O)(=O)N2CCCCC2)ccc1Oc1ccccc1)C1=COCCO1 | inconclusive: 28.2 µM [activator, single point] | – |
| Cc1cc(NCc2ccccn2)n2ncc(-c3ccccc3)c2n1 | inconclusive: 5.01 µM [activator, single point] | – |
| Nc1nc(SCc2ccccc2)c2[nH]cnc2n1 | inconclusive: 4.47 µM [activator, single point] | – |

Structures shown so far that contain a cyano group (two):

| Structure (SMILES) | Potency | activation |
| --- | --- | --- |
| CCC1Cc2c(nc(N)c3c(N)nc(N4CCOCC4)c(C#N)c23)O1 (stereo not drawn) | inconclusive: 1.41 µM [activator, single point] | – |
| CC(=O)N=Cc1c(C)c(C#N)c(=O)n(C)c1O | inconclusive: 3.16 µM [activator, single point] | – |
